Drawing on publication doi:10.1101/2023.10.13.562167, this text covers binding for two substances.

Protein sequences, listed by entry. Tags and fused reporters are not part of them. Residues count along the entry.
UniProt Q5S007: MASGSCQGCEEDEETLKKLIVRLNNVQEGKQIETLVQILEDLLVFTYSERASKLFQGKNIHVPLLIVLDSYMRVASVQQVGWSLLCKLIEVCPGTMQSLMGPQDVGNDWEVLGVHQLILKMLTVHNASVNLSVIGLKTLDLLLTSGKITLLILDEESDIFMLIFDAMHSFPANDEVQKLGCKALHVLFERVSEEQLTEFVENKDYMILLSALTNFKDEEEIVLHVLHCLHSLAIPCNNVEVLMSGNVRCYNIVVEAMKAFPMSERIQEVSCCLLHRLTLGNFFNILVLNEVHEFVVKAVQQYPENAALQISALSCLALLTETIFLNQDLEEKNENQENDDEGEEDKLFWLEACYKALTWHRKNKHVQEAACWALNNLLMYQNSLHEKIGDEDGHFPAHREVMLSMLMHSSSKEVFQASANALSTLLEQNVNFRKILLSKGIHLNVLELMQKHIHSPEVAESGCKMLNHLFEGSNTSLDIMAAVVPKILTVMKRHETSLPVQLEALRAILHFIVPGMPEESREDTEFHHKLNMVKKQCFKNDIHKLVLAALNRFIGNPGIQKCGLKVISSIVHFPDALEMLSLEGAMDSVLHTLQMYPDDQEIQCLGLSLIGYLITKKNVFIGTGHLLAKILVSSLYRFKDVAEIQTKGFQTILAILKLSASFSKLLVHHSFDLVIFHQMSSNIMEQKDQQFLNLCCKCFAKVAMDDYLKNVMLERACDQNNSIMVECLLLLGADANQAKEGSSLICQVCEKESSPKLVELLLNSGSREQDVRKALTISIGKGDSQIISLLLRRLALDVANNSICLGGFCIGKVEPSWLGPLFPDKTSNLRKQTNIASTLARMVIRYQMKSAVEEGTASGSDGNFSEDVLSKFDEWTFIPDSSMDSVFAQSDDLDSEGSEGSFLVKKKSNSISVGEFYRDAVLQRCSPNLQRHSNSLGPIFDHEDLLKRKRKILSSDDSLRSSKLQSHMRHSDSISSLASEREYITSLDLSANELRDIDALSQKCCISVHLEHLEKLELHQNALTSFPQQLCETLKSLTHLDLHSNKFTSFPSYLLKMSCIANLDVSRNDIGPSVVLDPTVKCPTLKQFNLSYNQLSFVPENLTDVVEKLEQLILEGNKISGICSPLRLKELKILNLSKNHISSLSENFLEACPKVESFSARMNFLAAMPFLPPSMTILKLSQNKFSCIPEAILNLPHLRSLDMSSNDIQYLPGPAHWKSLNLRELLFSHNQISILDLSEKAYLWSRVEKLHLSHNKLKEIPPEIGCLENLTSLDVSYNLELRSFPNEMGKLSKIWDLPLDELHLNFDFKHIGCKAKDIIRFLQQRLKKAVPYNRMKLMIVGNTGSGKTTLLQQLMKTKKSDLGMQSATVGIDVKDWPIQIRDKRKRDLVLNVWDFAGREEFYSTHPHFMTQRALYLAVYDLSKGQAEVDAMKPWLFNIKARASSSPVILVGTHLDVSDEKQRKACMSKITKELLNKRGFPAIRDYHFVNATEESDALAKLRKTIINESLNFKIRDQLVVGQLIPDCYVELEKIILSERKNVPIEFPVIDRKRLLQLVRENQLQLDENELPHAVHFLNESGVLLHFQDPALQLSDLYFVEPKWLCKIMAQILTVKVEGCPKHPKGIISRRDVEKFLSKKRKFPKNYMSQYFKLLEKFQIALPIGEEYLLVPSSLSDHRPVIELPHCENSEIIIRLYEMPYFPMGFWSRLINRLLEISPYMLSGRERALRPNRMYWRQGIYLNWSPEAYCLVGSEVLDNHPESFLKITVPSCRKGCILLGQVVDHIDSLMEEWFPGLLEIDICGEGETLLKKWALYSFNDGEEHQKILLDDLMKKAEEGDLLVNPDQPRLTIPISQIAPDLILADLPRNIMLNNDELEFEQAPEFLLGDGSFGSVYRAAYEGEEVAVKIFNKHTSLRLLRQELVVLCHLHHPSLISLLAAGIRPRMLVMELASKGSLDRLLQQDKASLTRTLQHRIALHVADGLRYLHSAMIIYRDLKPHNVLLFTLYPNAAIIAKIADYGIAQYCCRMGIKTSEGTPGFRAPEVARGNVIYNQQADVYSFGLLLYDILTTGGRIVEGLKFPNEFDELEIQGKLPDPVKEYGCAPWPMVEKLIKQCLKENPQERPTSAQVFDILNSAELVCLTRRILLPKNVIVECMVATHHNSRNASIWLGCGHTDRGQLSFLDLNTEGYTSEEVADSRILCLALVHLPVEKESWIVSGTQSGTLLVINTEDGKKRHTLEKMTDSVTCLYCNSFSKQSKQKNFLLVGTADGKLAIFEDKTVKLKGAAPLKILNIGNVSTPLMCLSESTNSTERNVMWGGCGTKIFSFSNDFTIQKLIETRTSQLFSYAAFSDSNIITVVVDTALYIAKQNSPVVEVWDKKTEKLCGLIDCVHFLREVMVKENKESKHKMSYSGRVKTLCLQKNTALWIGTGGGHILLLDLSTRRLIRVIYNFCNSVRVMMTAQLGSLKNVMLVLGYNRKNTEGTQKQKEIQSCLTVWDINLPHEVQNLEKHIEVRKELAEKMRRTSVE
UniProt Q9BXW4, residues 1-126: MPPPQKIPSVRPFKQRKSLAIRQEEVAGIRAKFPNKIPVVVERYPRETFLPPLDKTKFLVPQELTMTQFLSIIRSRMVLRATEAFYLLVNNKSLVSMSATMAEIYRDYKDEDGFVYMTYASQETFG

The target of this assay is GFP-LRRK2 (leucine-rich repeat kinase 2) (UniProt Q5S007). As to the kind of experiment: co-IP.

No constants are given. Whether binding was seen depends on the method and setting. Binding seen in cells or lysates may run through a third protein.

Turning to 3×FLAG-LC3A (from UniProt Q9H492 1-121), the binding result is given as “no binding”.

For the substance 3×FLAG-LC3C (from UniProt Q9BXW4 1-126), the binding result is “no binding”.
